According to PubChem BioAssay (NCATS):
This list was built around the results that the source calls inconclusive (neither active nor inactive); the mix of calls is not that of the screen. A potency beside an inconclusive call is a rough fit, not a confirmed value. Active and inactive are the calls of the source. The call rests on the fitted dose curve; in most records, active means well fitted curve in the direction sought with a large enough effect; inconclusive means small, poorly fitted or top-dose-only effect, or another doubt; inactive means no such curve, though single readings can be large; an effect the other way counts as inactive or inconclusive.

Key:
[1] = Quantitative High-Throughput drug screen in 47 multiple myeloma cell lines against the NCATS MIPE library collection: Karpas417_ECACC cell viability assay (AID 1918961); details: Karpas417 myeloma viability, CellTiter-Glo ATP luminescence, 48 h; viability (% of DMSO): at 45.8 µM (top of the series)
Outline: (§1)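 Approved and investigational drugs from MIPE 4.0 were added by pin tool to 500 cells per well. After 48 hours at 37C, ATP-based CellTiter-Glo luminescence indicated remaining viability.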

[2] = Quantitative High-Throughput drug screen in 47 multiple myeloma cell lines against the NCATS MIPE library collection: KHM11_PLB cell viability assay (AID 1918962); details: KHM11 myeloma cell viability, CellTiter-Glo ATP luminescence, 48 h; viability, % of DMSO control: at 45.8 µM (top of the series); further: nearly all actives have a fitted effect of over 35% in size
Outline: (§2)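 Viability readout: CellTiter-Glo luminescence following 5 min room-temperature incubation with reagent. Prior exposure: 48 h, 37C, humidified 5% CO2, 500 cells per well.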

[3] = Quantitative High-Throughput drug screen in 47 multiple myeloma cell lines against the NCATS MIPE library collection: JIM3_ECACC cell viability assay (AID 1918963; further: nearly all actives have a fitted effect of over 35% in size); details: JIM3 myeloma viability, CellTiter-Glo ATP, 48 h; viability, percent of control: at 45.8 µM (top of the series)
Outline: as §2

[4] = Quantitative High-Throughput drug screen in 47 multiple myeloma cell lines against the NCATS MIPE library collection: JIM1_ECACC cell viability assay (AID 1918964); details: JIM1 myeloma viability, CellTiter-Glo ATP luminescence, 48 h; viability (% of DMSO): at 45.8 µM (top of the series)
Outline: (§3)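 Myeloma cell lines, 500 cells per well, exposed to MIPE 4.0 library compounds for 48 h at 37C, 5% CO2. Viability from ATP by CellTiter-Glo luminescence; normalised to DMSO (100%) and media-only (0%) wells.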

[5] = Quantitative High-Throughput drug screen in 47 multiple myeloma cell lines against the NCATS MIPE library collection: JJN3_DSMZ cell viability assay (AID 1918966; further: nearly all actives have a fitted effect of over 50% in size)
Outline: as §3

[6] = Quantitative High-Throughput drug screen in 47 multiple myeloma cell lines against the NCATS MIPE library collection: KMS27_JCRB cell viability assay (AID 1918970); details: KMS27 myeloma cells, CellTiter-Glo ATP viability, 48 h; viability (% of DMSO): at 45.8 µM (top of the series); further: nearly all actives have a fitted effect of over 30% in size
Outline: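 Each line is seeded at 500 cells per well and treated with library compounds for 48 hours under 37 °C, 5% CO2. CellTiter-Glo is then added for 5 min at room temperature before median relative luminescence is recorded.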

[7] = Quantitative High-Throughput drug screen in 47 multiple myeloma cell lines against the NCATS MIPE library collection: KMS12BM_JCRB cell viability assay (AID 1918971); further: nearly all actives have a fitted effect of over 35% in size
Outline: (§4)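 Relative luminescence from CellTiter-Glo served as the viability signal, referenced to DMSO-treated (100%) and cell-free medium (0%) controls. Treatment lasted 48 hours at 37C with 500 cells per well.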

[8] = Quantitative High-Throughput drug screen in 47 multiple myeloma cell lines against the NCATS MIPE library collection: KMS12PE_JCRB cell viability assay (AID 1918972); details: KMS12PE myeloma viability, CellTiter-Glo ATP, 48 h; viability: at 45.8 µM (top of the series); further: nearly all actives have a fitted effect of over 30% in size
Outline: as §1

[9] = Quantitative High-Throughput drug screen in 47 multiple myeloma cell lines against the NCATS MIPE library collection: KMS20_JCRB cell viability assay (AID 1918973); details: CellTiter-Glo ATP, 48 h; viability (% of DMSO): at 45.8 µM (top of the series); further: nearly all actives have a fitted effect of over 45% in size
Outline: as §3

[10] = Quantitative High-Throughput drug screen in 47 multiple myeloma cell lines against the NCATS MIPE library collection: MOLP8_DSMZ cell viability assay (AID 1918977); further: nearly all actives have a fitted effect of over 45% in size
Outline: (§5)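 MIPE 4.0 approved/investigational drugs; 500 cells/well; 48 h 37 °C humidified 5% CO2; CTG luminescence readout; DMSO = 100%, media = 0% viability.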

[11] = Quantitative High-Throughput drug screen in 47 multiple myeloma cell lines against the NCATS MIPE library collection: OCIMY1_PLB cell viability assay (AID 1918979); further: nearly all actives have a fitted effect of over 35% in size
Outline: as §5

[12] = Quantitative High-Throughput drug screen in 47 multiple myeloma cell lines against the NCATS MIPE library collection: MM1R_ATCC cell viability assay (AID 1918981); further: nearly all actives have a fitted effect of over 35% in size
Outline: as §5

[13] = Quantitative High-Throughput drug screen in 47 multiple myeloma cell lines against the NCATS MIPE library collection: INA6_PLB cell viability assay (AID 1918965; further: nearly all actives have a fitted effect of over 55% in size); details: INA6 myeloma viability, CellTiter-Glo ATP luminescence, 48 h; viability (% of control): at 45.8 µM (top of the series)
Outline: as §1

[14] = Quantitative High-Throughput drug screen in 47 multiple myeloma cell lines against the NCATS MIPE library collection: H1112_PLB cell viability assay (AID 1918967; further: nearly all actives have a fitted effect of over 30% in size)
Outline: as §3

[15] = Quantitative High-Throughput drug screen in 47 multiple myeloma cell lines against the NCATS MIPE library collection: Karpas25_ECACC cell viability assay (AID 1918968; further: nearly all actives have a fitted effect of over 35% in size)
Outline: as §3

[16] = Quantitative High-Throughput drug screen in 47 multiple myeloma cell lines against the NCATS MIPE library collection: KMS26_JCRB cell viability assay (AID 1918975); details: KMS26 myeloma cells viability, CellTiter-Glo ATP, 48 h; viability (% of DMSO): at 45.8 µM (top of the series); further: nearly all actives have a fitted effect of over 45% in size
Outline: as §4

[17] = Quantitative High-Throughput drug screen in 47 multiple myeloma cell lines against the NCATS MIPE library collection: MMM1_PLB cell viability assay (AID 1918976); further: nearly all actives have a fitted effect of over 35% in size
Outline: as §5

[18] = Quantitative High-Throughput drug screen in 47 multiple myeloma cell lines against the NCATS MIPE library collection: NCIH929_DSMZ cell viability assay (AID 1918978); details: NCI-H929 myeloma viability, CellTiter-Glo ATP, 48 h; viability, % of control: at 45.8 µM (top of the series); further: nearly all actives have a fitted effect of over 35% in size
Outline: as §5

[19] = Quantitative High-Throughput drug screen in 47 multiple myeloma cell lines against the NCATS MIPE library collection: MM1S_ATCC cell viability assay (AID 1918980); further: nearly all actives have a fitted effect of over 45% in size
Outline: as §5

[20] = Quantitative High-Throughput drug screen in 47 multiple myeloma cell lines against the NCATS MIPE library collection: KMS21BM_JCRB cell viability assay (AID 1918974); details: ATP luminescence, 48 h; viability: at 45.8 µM (top of the series)
Outline: as §3
Potency means the concentration at half of the fitted maximal effect.

O=C(NCC1CCOCC1)c1cnc(Nc2ccc(Cl)cc2Cl)nc1C(F)(F)F
inconclusive: Potency [1] 0.0053 µM [cytotoxic, full curve, poor fit] | Potency [2] 33.2 µM [rising, single point] | Potency [3] 0.001 µM [cytotoxic] | Potency [4] 0.0015 µM [rising, full curve, poor fit] | Potency [5] 0.0118 µM [rising, full curve, poor fit] | Potency [6] 5.9 µM [cytotoxic, partial curve, poor fit] | Potency [7] 6.62 µM [cytotoxic, partial curve, poor fit] | Potency [8] 6.62 µM [cytotoxic, single point] | Potency [9] 0.935 µM [cytotoxic, partial curve, poor fit] | Potency [10] 0.0033 µM [rising, full curve, poor fit] | Potency [11] 0.001 µM | Potency [12] 20.9 µM [cytotoxic, single point]

CCN(CC)C(=O)c1ccc(C2=CC3(CCNCC3)Oc3cccc(O)c32)cc1
inconclusive: Potency [1] 4.18 µM [cytotoxic, full curve, poor fit] | Potency [2] 8.33 µM [cytotoxic, partial curve, poor fit] | Potency [4] 37.2 µM [cytotoxic, single point] | Potency [5] 0.001 µM [cytotoxic] | Potency [6] 37.2 µM [cytotoxic, single point] | Potency [7] 66.2 µM [cytotoxic, partial curve, poor fit] | Potency [19] 10.5 µM [cytotoxic, partial curve, poor fit] | Potency [12] 14.8 µM [cytotoxic, partial curve, poor fit]
inactive: Potency [3] | Potency [13] | Potency [14] | Potency [15] | Potency [9] | Potency [16] | Potency [10] | Potency [18]
active: Potency [17] 10.5 µM

COc1ccc(C(=O)N2CCCC2=O)cc1
inactive: Potency [3] | Potency [5] | Potency [7] | Potency [9] | Potency [10] | Potency [12]
inconclusive: Potency [1] 37.2 µM [rising, partial curve, poor fit] | Potency [2] 7.43 µM [cytotoxic, partial curve, poor fit] | Potency [13] 10.5 µM [rising, single point] | Potency [6] 0.0662 µM [rising, full curve, poor fit] | Potency [20] 37.2 µM [rising, partial curve, poor fit] | Potency [16] 0.0033 µM [cytotoxic, full curve, poor fit] | Potency [17] 0.469 µM [cytotoxic, full curve, poor fit] | Potency [18] 16.6 µM [cytotoxic, partial curve, poor fit] | Potency [11] 29.6 µM [cytotoxic, single point]

COC1(CS(=O)c2ccccc2)CCN(CCc2c[nH]c3ccc(F)cc23)CC1 (stereo not drawn)
inactive: Potency [1] | Potency [2] | Potency [5] | Potency [14] | Potency [7] | Potency [20] | Potency [16] | Potency [10] | Potency [18]
inconclusive: Potency [4] 2.96 µM [cytotoxic, partial curve, poor fit] | Potency [13] 20.9 µM [cytotoxic, partial curve, poor fit] | Potency [6] 18.7 µM [cytotoxic, partial curve, poor fit] | Potency [8] 7.43 µM [cytotoxic, partial curve, poor fit] | Potency [9] 29.6 µM [cytotoxic, partial curve, poor fit] | Potency [19] 26.4 µM [cytotoxic, single point]

COc1cc2cc(c1Cl)N(C)C(=O)C[C@H](OC(=O)C(C)C)[C@]1(C)O[C@H]1[C@H](C)[C@@H]1C[C@@](O)(NC(=O)O1)[C@H](OC)C=CC=C(C)C2
inconclusive: Potency [1] 0.0296 µM [cytotoxic, full curve] | Potency [14] 0.833 µM [cytotoxic, partial curve, poor fit] | Potency [20] 23.5 µM [rising, single point] | Potency [11] 0.0074 µM [cytotoxic, partial curve, poor fit]
inactive: Potency [2] | Potency [3] | Potency [4] | Potency [13] | Potency [5] | Potency [6] | Potency [7] | Potency [9] | Potency [17] | Potency [10] | Potency [18] | Potency [19] | Potency [12]

C=C1C[C@H]2[C@H]3CCC(=O)[C@@]3(C)CC[C@@H]2[C@@]2(C)C=CC(=O)C=C12
inconclusive: Potency [1] 37.2 µM [cytotoxic, single point] | Potency [2] 1.87 µM [cytotoxic, partial curve, poor fit] | Potency [3] 18.7 µM [cytotoxic, partial curve, poor fit] | Potency [4] 14.8 µM [cytotoxic, partial curve] | Potency [9] 5.9 µM [cytotoxic, full curve, poor fit] | viability (% of DMSO) [16] 93.2% [cytotoxic] | Potency [10] 37.2 µM [cytotoxic, partial curve, poor fit] | Potency [18] 20.9 µM [cytotoxic, single point] | Potency [11] 41.8 µM [cytotoxic, single point] | Potency [19] 37.2 µM [cytotoxic, single point] | Potency [12] 0.001 µM [cytotoxic]
active: Potency [13] 20.9 µM | Potency [7] 20.9 µM | Potency [20] 14.8 µM

C=C(C)[C@H]1Cc2c(ccc3c2O[C@@H]2COc4cc(OC)c(OC)cc4[C@@H]2C3=O)O1
active: Potency [3] 0.935 µM | Potency [4] 0.418 µM | Potency [13] 0.118 µM | Potency [7] 2.64 µM | Potency [9] 0.332 µM | Potency [20] 0.209 µM | Potency [17] 0.166 µM | Potency [19] 1.32 µM | Potency [12] 0.526 µM
inconclusive: Potency [1] 0.59 µM [cytotoxic, full curve] | Potency [2] 0.148 µM [cytotoxic, full curve] | Potency [16] 5.9 µM [cytotoxic, partial curve] | Potency [10] 1.66 µM [cytotoxic, partial curve, poor fit] | Potency [11] 0.209 µM [cytotoxic, full curve, poor fit]

CCOC(=O)c1c(C(C#N)=CN)c2ccc(Cl)c(Cl)c2n1C
inconclusive: Potency [1] 41.8 µM [cytotoxic, partial curve, poor fit] | Potency [4] 0.0296 µM [rising, full curve, poor fit] | Potency [13] 14.8 µM [cytotoxic, partial curve, poor fit] | Potency [5] 23.5 µM [cytotoxic, single point] | Potency [15] 18.7 µM [cytotoxic, partial curve] | Potency [7] 33.2 µM [cytotoxic, single point] | Potency [9] 33.2 µM [rising, partial curve, poor fit] | Potency [16] 4.18 µM [rising, partial curve, poor fit] | Potency [17] 0.0372 µM [rising, full curve] | Potency [10] 33.2 µM [cytotoxic, single point] | Potency [18] 20.9 µM [cytotoxic, single point] | Potency [12] 0.003 µM [rising, full curve, poor fit]
inactive: Potency [2] | Potency [3] | Potency [6]

NC1=NC(=O)N2CC12 (stereo not drawn)
inactive: Potency [11] | Potency [19]
active: Potency [1] 1.66 µM | Potency [8] 10.5 µM
inconclusive: Potency [2] 0.0042 µM [rising, full curve, poor fit] | Potency [3] 37.2 µM [cytotoxic, single point] | Potency [5] 13.2 µM [cytotoxic, partial curve, poor fit] | Potency [14] 33.2 µM [cytotoxic, single point] | Potency [15] 33.2 µM [cytotoxic, single point] | Potency [7] 1.48 µM [cytotoxic, full curve, poor fit] | Potency [9] 0.0017 µM [rising, full curve, poor fit] | Potency [20] 3.32 µM [cytotoxic, full curve, poor fit] | Potency [16] 0.187 µM [cytotoxic, full curve, poor fit] | Potency [17] 0.0023 µM [rising, full curve, poor fit] | Potency [10] 1.05 µM [cytotoxic, full curve, poor fit]

Cc1cc(SCc2sc(-c3ccc(C(F)(F)F)c(F)c3)nc2C)ccc1OCC(=O)O
inactive: Potency [5]
active: Potency [3] 20.9 µM | Potency [16] 4.69 µM
inconclusive: Potency [1] 37.2 µM [cytotoxic, single point] | Potency [2] 18.7 µM [cytotoxic, partial curve, poor fit] | Potency [4] 0.001 µM [cytotoxic] | Potency [13] 37.2 µM [cytotoxic, single point] | Potency [6] 18.7 µM [cytotoxic, partial curve, poor fit] | Potency [7] 14.8 µM [cytotoxic, partial curve, poor fit] | Potency [9] 20.9 µM [cytotoxic, partial curve, poor fit] | Potency [20] 2.09 µM [rising, full curve, poor fit] | Potency [17] 16.6 µM [cytotoxic, partial curve, poor fit] | Potency [10] 10.5 µM [cytotoxic, partial curve, poor fit] | Potency [12] 4.18 µM [cytotoxic, partial curve, poor fit]
